This is an account of results in paper doi:10.1101/2021.08.30.458243.

By UniProt entry, the sequences of proteins in these tests, tags left out. Where a name states a change or a piece, a line headed by the entry shows the natural chain unless it says otherwise.
UniProt Q69ZS8: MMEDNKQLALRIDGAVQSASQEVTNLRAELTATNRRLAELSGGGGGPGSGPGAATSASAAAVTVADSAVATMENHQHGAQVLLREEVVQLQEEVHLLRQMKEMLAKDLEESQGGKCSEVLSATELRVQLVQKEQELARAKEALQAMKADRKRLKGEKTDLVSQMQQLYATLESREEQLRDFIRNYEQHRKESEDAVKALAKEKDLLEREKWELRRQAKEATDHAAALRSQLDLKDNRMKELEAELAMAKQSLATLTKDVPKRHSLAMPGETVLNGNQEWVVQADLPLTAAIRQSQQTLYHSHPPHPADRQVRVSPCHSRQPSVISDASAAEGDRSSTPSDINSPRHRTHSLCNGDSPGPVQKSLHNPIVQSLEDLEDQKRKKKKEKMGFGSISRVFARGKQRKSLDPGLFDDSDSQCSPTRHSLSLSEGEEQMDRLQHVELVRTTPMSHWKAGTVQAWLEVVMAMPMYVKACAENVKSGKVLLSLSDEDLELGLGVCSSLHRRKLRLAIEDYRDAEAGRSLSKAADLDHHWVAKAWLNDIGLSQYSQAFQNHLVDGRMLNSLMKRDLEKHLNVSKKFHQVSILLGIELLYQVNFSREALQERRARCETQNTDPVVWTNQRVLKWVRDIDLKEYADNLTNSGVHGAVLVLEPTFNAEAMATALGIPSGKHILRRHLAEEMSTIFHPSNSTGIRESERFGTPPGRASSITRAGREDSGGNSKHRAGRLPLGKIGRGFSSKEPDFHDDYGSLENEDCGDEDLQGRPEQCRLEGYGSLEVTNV
UniProt O08788: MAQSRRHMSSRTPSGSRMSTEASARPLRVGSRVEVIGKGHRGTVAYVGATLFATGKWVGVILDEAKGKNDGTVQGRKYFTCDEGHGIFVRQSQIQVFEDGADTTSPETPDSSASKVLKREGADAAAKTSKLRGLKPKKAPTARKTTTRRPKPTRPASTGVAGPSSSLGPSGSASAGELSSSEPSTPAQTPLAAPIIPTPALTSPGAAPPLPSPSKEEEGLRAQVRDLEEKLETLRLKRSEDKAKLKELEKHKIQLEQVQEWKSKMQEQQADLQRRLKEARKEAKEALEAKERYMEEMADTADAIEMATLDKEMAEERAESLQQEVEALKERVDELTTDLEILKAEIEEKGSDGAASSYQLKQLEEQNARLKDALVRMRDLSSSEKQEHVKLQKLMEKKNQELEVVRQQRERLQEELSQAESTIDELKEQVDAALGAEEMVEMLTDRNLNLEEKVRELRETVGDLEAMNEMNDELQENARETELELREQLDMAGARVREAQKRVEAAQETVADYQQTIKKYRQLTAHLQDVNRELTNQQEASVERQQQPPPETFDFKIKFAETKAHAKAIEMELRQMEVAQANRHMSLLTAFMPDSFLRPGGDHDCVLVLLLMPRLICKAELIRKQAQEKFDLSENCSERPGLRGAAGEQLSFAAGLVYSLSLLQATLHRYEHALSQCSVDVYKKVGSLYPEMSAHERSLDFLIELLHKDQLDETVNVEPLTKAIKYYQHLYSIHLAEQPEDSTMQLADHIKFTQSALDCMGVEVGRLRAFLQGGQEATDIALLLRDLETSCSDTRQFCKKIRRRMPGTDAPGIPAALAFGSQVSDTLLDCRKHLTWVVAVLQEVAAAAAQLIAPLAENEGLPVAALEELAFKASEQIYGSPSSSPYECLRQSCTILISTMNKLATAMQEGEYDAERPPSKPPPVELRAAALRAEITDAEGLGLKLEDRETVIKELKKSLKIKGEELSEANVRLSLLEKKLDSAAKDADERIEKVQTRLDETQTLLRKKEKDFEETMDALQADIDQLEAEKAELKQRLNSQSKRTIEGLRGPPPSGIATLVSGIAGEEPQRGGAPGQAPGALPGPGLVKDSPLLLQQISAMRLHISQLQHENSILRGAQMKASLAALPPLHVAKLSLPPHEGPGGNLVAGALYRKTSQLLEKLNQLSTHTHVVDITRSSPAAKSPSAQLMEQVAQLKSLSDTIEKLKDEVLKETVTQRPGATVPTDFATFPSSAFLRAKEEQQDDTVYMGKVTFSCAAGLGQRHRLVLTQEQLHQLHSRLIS
UniProt P22892: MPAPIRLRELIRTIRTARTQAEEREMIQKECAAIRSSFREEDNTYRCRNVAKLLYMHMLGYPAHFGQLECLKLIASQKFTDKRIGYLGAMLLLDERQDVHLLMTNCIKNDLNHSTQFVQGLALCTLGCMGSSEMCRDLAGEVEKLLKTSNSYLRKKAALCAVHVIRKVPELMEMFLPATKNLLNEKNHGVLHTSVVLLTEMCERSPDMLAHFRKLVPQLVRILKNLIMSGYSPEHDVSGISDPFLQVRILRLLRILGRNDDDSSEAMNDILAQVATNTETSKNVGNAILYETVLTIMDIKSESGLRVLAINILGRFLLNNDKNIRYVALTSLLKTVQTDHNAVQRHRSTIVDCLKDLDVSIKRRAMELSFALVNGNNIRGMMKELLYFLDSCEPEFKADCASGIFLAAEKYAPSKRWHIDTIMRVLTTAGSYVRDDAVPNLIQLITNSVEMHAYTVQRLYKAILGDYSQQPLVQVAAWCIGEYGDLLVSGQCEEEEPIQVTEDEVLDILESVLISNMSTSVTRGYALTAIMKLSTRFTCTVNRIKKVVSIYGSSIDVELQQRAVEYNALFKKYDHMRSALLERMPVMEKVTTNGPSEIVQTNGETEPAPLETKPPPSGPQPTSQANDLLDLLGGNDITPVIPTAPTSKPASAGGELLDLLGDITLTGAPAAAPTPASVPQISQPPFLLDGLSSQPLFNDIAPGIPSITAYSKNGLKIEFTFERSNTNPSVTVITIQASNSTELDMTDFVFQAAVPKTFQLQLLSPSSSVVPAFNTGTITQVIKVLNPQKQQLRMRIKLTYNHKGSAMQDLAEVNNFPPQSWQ

No constants are given. Whether binding was seen depends on the method and setting. Binding calls can cover weak binding; strength is not graded here. For some of these results: Tags and fused reporters may be left off the sequences shown. For some of these results: In cells and extracts the contact can be indirect.

Assay [1] addresses T1, GST fused to full length EHD1 (UniProt Q9H4M9).
T1 sequence: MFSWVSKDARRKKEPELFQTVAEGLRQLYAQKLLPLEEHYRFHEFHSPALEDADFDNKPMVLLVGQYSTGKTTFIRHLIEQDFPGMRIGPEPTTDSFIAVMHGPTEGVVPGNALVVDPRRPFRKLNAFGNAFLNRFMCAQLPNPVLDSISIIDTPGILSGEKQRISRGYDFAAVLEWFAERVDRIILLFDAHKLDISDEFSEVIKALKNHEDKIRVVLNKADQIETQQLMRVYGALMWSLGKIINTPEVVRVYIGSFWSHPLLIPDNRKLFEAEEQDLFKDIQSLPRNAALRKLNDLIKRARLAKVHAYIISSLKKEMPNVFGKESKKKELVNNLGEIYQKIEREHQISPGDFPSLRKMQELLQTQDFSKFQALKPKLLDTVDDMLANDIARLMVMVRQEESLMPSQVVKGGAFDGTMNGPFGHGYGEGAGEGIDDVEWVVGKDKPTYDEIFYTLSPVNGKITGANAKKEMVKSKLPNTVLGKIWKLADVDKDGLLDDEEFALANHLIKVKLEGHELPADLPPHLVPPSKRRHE
Put plainly: pull-down.

Assay [2] has as its target T2, GST fused to full length EHD3 (UniProt Q9NZN3).
T2 sequence: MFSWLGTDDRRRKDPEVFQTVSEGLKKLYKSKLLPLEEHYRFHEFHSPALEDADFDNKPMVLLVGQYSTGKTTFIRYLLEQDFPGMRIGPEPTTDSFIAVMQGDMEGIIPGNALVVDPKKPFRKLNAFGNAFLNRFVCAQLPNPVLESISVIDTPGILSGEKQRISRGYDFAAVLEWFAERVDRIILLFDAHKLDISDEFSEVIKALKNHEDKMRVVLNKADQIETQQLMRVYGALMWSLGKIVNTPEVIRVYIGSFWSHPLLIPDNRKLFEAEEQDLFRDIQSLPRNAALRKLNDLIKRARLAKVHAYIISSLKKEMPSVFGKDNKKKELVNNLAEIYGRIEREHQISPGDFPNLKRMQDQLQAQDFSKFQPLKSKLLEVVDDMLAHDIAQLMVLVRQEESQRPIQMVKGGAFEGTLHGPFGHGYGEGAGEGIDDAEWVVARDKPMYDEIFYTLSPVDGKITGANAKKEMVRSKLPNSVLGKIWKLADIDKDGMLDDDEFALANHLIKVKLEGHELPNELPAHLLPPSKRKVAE
Put plainly: pull-down.

Assay [3] addresses endogenous kazrin (MEF) (mouse (endogenous in MEF)) (UniProt Q69ZS8). Put plainly: co-IP.

As for 6xHis-kazrin C (human), the binding result in assay [1] and in assay [2] was “binds” in each case.
On to “dynactin component p150-glued, MEF (from UniProt O08788 1-1281)”, for which the binding entry in assay [3] was “binds”.
On the same count and under the same terms, for “γ-adaptin, a component of the clathrin adaptor AP-1 (Adaptor Protein 1), MEF (from UniProt P22892 1-822)” the value was “binds”.
